The record followed here is article PMC7819943, “Rice protein-binding microarrays: a tool to detect cis-acting elements near promoter regions in rice”.

The list shows a part of the results.

The target in this assay is T1, OsSMF1 (Oryza sativa, UniProt Q6ZLB0 1-436).
T1 sequence: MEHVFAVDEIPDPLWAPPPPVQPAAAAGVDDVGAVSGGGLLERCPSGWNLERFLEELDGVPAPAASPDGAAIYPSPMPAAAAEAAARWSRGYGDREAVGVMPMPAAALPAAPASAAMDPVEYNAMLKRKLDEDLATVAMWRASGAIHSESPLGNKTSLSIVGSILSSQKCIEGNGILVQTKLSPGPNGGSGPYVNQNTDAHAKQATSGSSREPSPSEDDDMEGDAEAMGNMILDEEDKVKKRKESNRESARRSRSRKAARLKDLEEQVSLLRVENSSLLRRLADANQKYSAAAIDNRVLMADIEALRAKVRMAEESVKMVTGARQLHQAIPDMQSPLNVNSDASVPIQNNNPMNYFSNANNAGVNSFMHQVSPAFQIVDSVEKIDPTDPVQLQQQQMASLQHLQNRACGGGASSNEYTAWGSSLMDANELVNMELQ
Put plainly: protein-binding microarray (RPBM); PBS, 2% BSA, 51.3 ng/ul salmon testes DNA, 50 uM zinc acetate, 200 nM TF, 25 C, 1 h; high values mean tight binding. Particulars: protein: recombinant; tags: N-terminal polyhistidine and DsRed monomer fusion (pET32a); chain copies: 2; label: CyDye5-dUTP incorporated in the synthesized complementary strand; 3' TTTTT single-stranded linker to array surface; dsDNA, one strand shown. The method, boiled down: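 Ni–NTA purification followed expression in E. coli BL21-CodonPlus of transcription factors fused N-terminally to a polyhistidine tag and DsRed. At 200 nM in PBS with 2% BSA, salmon testes DNA and 50 µM zinc acetate, the protein was incubated for 1 h at 25 °C with a custom Agilent array that had been primer-extended with Cy5-dUTP and blocked with 2% BSA. After washing, the array was read on an Axon 4000B scanner. The binding signal is per-feature fluorescence intensity in arbitrary units.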
Regarding “CATTCACGGCATCGCCACCTTGCCCACGTACCAGGGCCCCCGGAGTCACCTAGTGCAG”, the binding signal was 4060 fluorescence intensity (a.u.).
The figure for “GCCAAGTCATCGTCCACGTGGCATAACACATAGGCAAGATCGGAGTCACCTAGTGCAG” is 9300 fluorescence intensity (a.u.).
The figure for “AGGTGGCGGTCTAGCTTGACACTCCTTTGCCTTCCATAGTCGGAGTCACCTAGTGCAG” is 3190 fluorescence intensity (a.u.).
The figure for “ATGATTTATTATGTTCTGCCCTTCTTTGTTGTGACAAAGTCGGAGTCACCTAGTGCAG” is 3900 fluorescence intensity (a.u.); for “CGCCCATGATGAACGTCACCTACGCCTTCGTCAACGGCATCGGAGTCACCTAGTGCAG” it is 3650 fluorescence intensity (a.u.).
Consider “ATTGAACAAGCTTTGAGCCTGATGTTCAAGGTGAGTTGAGCGGAGTCACCTAGTGCAG”, for which the binding signal was 9190 fluorescence intensity (a.u.).
As for “CAGGTTTGACCGACCTTTCAACCGATCGACGCTACCGCACCGGAGTCACCTAGTGCAG”, the binding signal was 20600 fluorescence intensity (a.u.).
The result for “GCGTCTCTCAGCCACTCACCACGGCGACGTGTCATCCCATCGGAGTCACCTAGTGCAG” reads 8330 fluorescence intensity (a.u.).
The figure for “CACAATTGACGTGGCACCTTCTTCCTGCCGATGCTCTTTCCGGAGTCACCTAGTGCAG” is 20100 fluorescence intensity (a.u.).
Consider “CCCACACCAACGGTCGCGATGTGTCTCTGGTGACGTGGCACGGAGTCACCTAGTGCAG”, for which the binding signal is 23100 fluorescence intensity (a.u.).
With “TTTCCTAATAGTAGTACTTGACAGCCTATCACTCCACCAACGGAGTCACCTAGTGCAG”, the binding signal was 3610 fluorescence intensity (a.u.).
In the case of “TTTAGAGAAGAGAAGTGATCCACGTGTCACCATCGCGAGGCGGAGTCACCTAGTGCAG”, the binding signal was 22800 fluorescence intensity (a.u.).
Take “AACTTGTAGCCGAAGGCCACGCAAGAGGCGTTGGCCCGGCCGGAGTCACCTAGTGCAG”: the binding signal was 3640 fluorescence intensity (a.u.).
The figure for “CCGCTAGTGTCCGAAACGGAAGGGCCTGTCAGAATTGTAGCGGAGTCACCTAGTGCAG” is 28600 fluorescence intensity (a.u.); for “GGCTCTAAACCAATTCCGAAGCTGAGGTGGATTCACGGGCCGGAGTCACCTAGTGCAG” it is 7570 fluorescence intensity (a.u.).
The result for “TCCATCTCCCACCCTTCCACCACTACCCACATCGTCTCGCCGGAGTCACCTAGTGCAG” reads 3240 fluorescence intensity (a.u.); that for “GCTGCGAACTCGCCGCACGACGTGGGACTGGGTCCAGTCCCGGAGTCACCTAGTGCAG”, 4070 fluorescence intensity (a.u.); that for “ACAATATTATAGAAACGTATGATCAGCATGCTTCATAATGCGGAGTCACCTAGTGCAG”, 3180 fluorescence intensity (a.u.).
The figure for “CTCCTTTGCATATCTCACTTCAGGAGGTGCTTACATCCAGCGGAGTCACCTAGTGCAG” is 3300 fluorescence intensity (a.u.); for “ATATGTACGGCCCAGATGGCTATGCACGTACTCCTATATGCGGAGTCACCTAGTGCAG” it is 3700 fluorescence intensity (a.u.).
For “ATATTTATAATAAGTTTACGATATTACAATAACATTTGTCCGGAGTCACCTAGTGCAG”, the binding signal was 30300 fluorescence intensity (a.u.).
With “TGAACCAAACAACTTTGTGCTGAATCATCTATATCACCTGCGGAGTCACCTAGTGCAG”, the binding signal is 6240 fluorescence intensity (a.u.).
The figure for “CAGTGGCTGACACGCGGGGTCGTGGGCCACGTCAATTCGACGGAGTCACCTAGTGCAG” is 6700 fluorescence intensity (a.u.); for “CCATTCATGCCCGTGATATCCTGGCTCCACGAGCTCTGCTCGGAGTCACCTAGTGCAG” it is 59000 fluorescence intensity (a.u.).
As to “TTTGGAATGGCTGCACCTACGAGGGAAGTTACATGGAGCACGGAGTCACCTAGTGCAG”, the binding signal is 29500 fluorescence intensity (a.u.).
“CCACGGAAACGGAAGCAGAGGCCAAGAGACGTGACCGCGTCGGAGTCACCTAGTGCAG”: the binding signal was 3280 fluorescence intensity (a.u.).
The result for “GACCCCACCTGTCATTCGAAGGGGTAACCACACACCTACGCGGAGTCACCTAGTGCAG” reads 3940 fluorescence intensity (a.u.); that for “CTGGGTCCCGAAAATTCTGCACCGGCCTCTCTTAGGGTTTCGGAGTCACCTAGTGCAG”, 10400 fluorescence intensity (a.u.).
The figure for “TAGCTCCCGAAGGTTCCAGAATCTTCGCAACTGCCTCCTTCGGAGTCACCTAGTGCAG” is 19800 fluorescence intensity (a.u.).
The figure for “AGACTTAATCCCTTGTGCAACACGTGTCCCGTCACAATCTCGGAGTCACCTAGTGCAG” is 7560 fluorescence intensity (a.u.); for “TTGCATTACTTTCTTAGGGTTTTCTCTTGATTGCACCTGCCGGAGTCACCTAGTGCAG” it is 24000 fluorescence intensity (a.u.); for “CGCATCCGCCGTCCGTCCAAACGCATCCGACGGTCCACGTCGGAGTCACCTAGTGCAG” it is 4950 fluorescence intensity (a.u.).
For “TCGCAGTAATATGCCACCGTGGCGAATTCCCCAAAACAACCGGAGTCACCTAGTGCAG”, the binding signal was 10200 fluorescence intensity (a.u.).
As for “AATGACCTTCCCTATAAGCTACTCCATACGTCACATTAAGCGGAGTCACCTAGTGCAG”, the binding signal is 3160 fluorescence intensity (a.u.).
The result for “GAGGTATCACCGTCCAGCTAAGCTGTTCAACTGCTGTATGCGGAGTCACCTAGTGCAG” reads 4160 fluorescence intensity (a.u.).
Consider “ATAACATATATTGTAAACCCTACACATATCATCGCCAGGCCGGAGTCACCTAGTGCAG”, for which the binding signal is 3640 fluorescence intensity (a.u.).
The figure for “ACTACTACTACGTGTATTAACCCCGTCACGATGAAAATGACGGAGTCACCTAGTGCAG” is 18700 fluorescence intensity (a.u.); for “TAAGTTACGTGTATGATGACGACAGAAAACGTAAACCATTCGGAGTCACCTAGTGCAG” it is 3330 fluorescence intensity (a.u.); for “ACTCCCACGTGGGCCCAATATGTCAGCCCGCTAGTTCAGGCGGAGTCACCTAGTGCAG” it is 6760 fluorescence intensity (a.u.).
The figure for “GGCCGCGGCGGCGTCAACCGCCGCTCTCCCTTTGCCACCACGGAGTCACCTAGTGCAG” is 3630 fluorescence intensity (a.u.).
The result for “GCGAAAGTCGGTTGAATTGTGGCATCATTCTCAAATTCTGCGGAGTCACCTAGTGCAG” reads 3170 fluorescence intensity (a.u.); that for “CTCTTGTCCTCAAGGTGAGTAGACAAGTACACATTTGTGTCGGAGTCACCTAGTGCAG”, 3680 fluorescence intensity (a.u.); that for “GCATCATCGTGGTGTCGTCTCTTCCACGTCAACCGTATTACGGAGTCACCTAGTGCAG”, 14200 fluorescence intensity (a.u.).
Regarding “ATTGTCGAGGAAGTTACCACGTAAATTTGTTCTTGCTTTTCGGAGTCACCTAGTGCAG”, the binding signal was 3320 fluorescence intensity (a.u.).
The result for “GATGCCCTGACGTCCGTGCACACGTGGCTGGTCTTAGTCTCGGAGTCACCTAGTGCAG” reads 19400 fluorescence intensity (a.u.); that for “TTTTAGTTATTACGCACCCCACGTACGGTATAGTATGTGTCGGAGTCACCTAGTGCAG”, 4040 fluorescence intensity (a.u.).
For “TGCTCTAATGGATTGATGACGCTTGAACTGTGACGGTGTACGGAGTCACCTAGTGCAG”, the binding signal was 5500 fluorescence intensity (a.u.).
The result for “AGGCAGTTACCAGTACTCTTTCTTGATTCAAAGGAGCACACGGAGTCACCTAGTGCAG” reads 3790 fluorescence intensity (a.u.).
The figure for “GCTTTGCATAGGCACTTTCAAAACTAGATATTAGTAACGCCGGAGTCACCTAGTGCAG” is 51000 fluorescence intensity (a.u.); for “ACGATTTCTTCTCCACGCAGCAAGAGCCGATCGATCATTGCGGAGTCACCTAGTGCAG” it is 3150 fluorescence intensity (a.u.).
The result for “CTCCCATTTGCGCAGCATTCCTTCGTGGCTTGGTGGTGTACGGAGTCACCTAGTGCAG” reads 3170 fluorescence intensity (a.u.); that for “GGTCGCCGTCACCCCTCGTCAGCGACGCGCACGTCGCCACCGGAGTCACCTAGTGCAG”, 4430 fluorescence intensity (a.u.).
With “TAGACCGACATATCTTAAGATTGACAAAGTCGCCATATCACGGAGTCACCTAGTGCAG”, the binding signal is 3290 fluorescence intensity (a.u.).
As for “GTTCTTGTCTCAGGGAAGATGAAACTGAATTCAACAATGACGGAGTCACCTAGTGCAG”, the binding signal was 29400 fluorescence intensity (a.u.).
